Results: PMC7140707
Results are given in words; binding and its absence hold for the method and conditions named. In cells and extracts the contact can be indirect. These calls come from enrichment with a bait or labelling near it, and not all partners need be listed. Sequences can lack the tags named with a protein.

T1: His6-Gis1 (yeast (S. cerevisiae)) (UniProt Q03833)
T1 sequence: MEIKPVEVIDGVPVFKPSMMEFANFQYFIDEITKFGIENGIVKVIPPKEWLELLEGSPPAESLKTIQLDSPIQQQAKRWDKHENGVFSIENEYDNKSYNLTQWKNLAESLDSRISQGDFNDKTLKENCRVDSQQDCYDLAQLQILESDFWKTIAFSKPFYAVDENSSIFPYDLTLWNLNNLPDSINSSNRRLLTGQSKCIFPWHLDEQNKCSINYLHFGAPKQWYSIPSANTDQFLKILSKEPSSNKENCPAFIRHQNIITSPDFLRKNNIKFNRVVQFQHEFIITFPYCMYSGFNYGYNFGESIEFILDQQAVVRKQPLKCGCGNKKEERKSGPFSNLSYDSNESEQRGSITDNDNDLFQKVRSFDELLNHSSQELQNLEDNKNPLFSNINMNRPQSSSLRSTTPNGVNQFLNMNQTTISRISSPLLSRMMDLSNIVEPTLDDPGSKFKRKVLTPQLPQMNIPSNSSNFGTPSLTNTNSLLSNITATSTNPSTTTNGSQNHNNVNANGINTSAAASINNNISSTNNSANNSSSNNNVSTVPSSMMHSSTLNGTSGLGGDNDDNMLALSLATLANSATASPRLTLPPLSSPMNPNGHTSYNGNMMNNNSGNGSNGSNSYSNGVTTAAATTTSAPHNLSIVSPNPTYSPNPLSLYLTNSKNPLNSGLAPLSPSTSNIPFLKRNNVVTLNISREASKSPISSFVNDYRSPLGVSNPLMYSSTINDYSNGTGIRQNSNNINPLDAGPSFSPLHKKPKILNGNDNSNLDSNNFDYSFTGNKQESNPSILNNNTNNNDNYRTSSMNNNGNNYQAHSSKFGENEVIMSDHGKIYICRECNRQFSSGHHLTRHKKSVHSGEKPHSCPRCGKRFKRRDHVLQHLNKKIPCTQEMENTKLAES

B1: DLD3 (protein, UniProt P39976 1-496)
chain: MTAAHPVAQLTAEAYPKVKRNPNFKVLDSEDLAYFRSILSNDEILNSQAPEELASFNQDWMKKYRGQSNLILLPNSTDKVSKIMKYCNDKKLAVVPQGGNTDLVGASVPVFDEIVLSLRNMNKVRDFDPVSGTFKCDAGVVMRDAHQFLHDHDHIFPLDLPSRNNCQVGGVVSTNAGGLNFLRYGSLHGNVLGLEVVLPNGEIISNINALRKDNTGYDLKQLFIGAEGTIGVVTGVSIVAAAKPKALNAVFFGIENFDTVQKLFVKAKSELSEILSAFEFMDRGSIECTIEYLKDLPFPLENQHNFYVLIETSGSNKRHDDEKLTAFLKDTTDSKLISEGMMAKDKADFDRLWTWRKSVPTACNSYGGMYKYDMSLQLKDLYSVSAAVTERLNAAGLIGDAPKPVVKSCGYGHVGDGNIHLNIAVREFTKQIEDLLEPFVYEYIASKKGSISAEHGIGFHKKGKLHYTRSDIEIRFMKDIKNHYDPNGILNPYKYI
B2: HBT1 (protein, UniProt Q07653 1-1046)
chain: MNMNESISKDGQGEEEQNNFSFGGKPGSYDSNSDSAQRKKSFSTTKPTEYNLPKEQPESTSKNLETKAKNILLPWRKKHNKDSETPHEDTEADANRRANVTSDVNPVSADTKSSSGPNATITTHGYSYVKTTTPAATSEQSKVKTSPPTSHEHSNIKASPTAHRHSKGDAGHPSIATTHNHSTSKAATSPVTHTHGHSSATTSPVTHTHGHASVKTTSPTNTHEHSKANTGPSATATTHGHINVKTTHPVSHGHSGSSTGPKSTAAAQDHSSTKTNPSVTHGHTSVKDNSSATKGYSNTDSNSDRDVIPGSFRGMTGTDVNPVDPSVYTSTGPKSNVSSGMNAVDPSVYTDTSSKSADRRKYSGNTATGPPQDTIKEIAQNVKMDESEQTGLKNDQVSGSDAIQQQTMEPEPKAAVGTSGFVSQQPSYHDSNKNIQHPEKNKVDNKNISERAAEKFNIERDDILESADDYQQKNIKSKTDSNWGPIEYSSSAGKNKNLQDVVIPSSMKEKFDSGTSGSQNMPKAGTELGHMKYNDNGRDNLQYVAGSQAGSQNTNNNIDMSPRHEAEWSGLSNDATTRNNVVSPAMKDEDMNEDSTKPHQYGLDYLDDVEDYHENDIDDYSNAKKNDLYSKKAYQGKPSDYNYEQREKIPGTFEPDTLSKSVQKQDEDPLSPRQTTNRAGMETARDESLGNYEYSNTSGNKKLSDLSKNKSGPTPTRSNFIDQIEPRRAKTTQDIASDAKDFTNNPETGTTGNVDTTGRMGAKSKTFSSNPFDDSKNTDTHLENANVAAFDNSRSGDTTYSKSGDAETAAYDNIKNADPTYAKSQDITGMTHDQEPSSEQKASYGSGGNSQNQEYSSDDNIDVNKNAKVLEEDAPGYKREVDLKNKRRTDLGGADASNAYAAEVGNFPSLIDPHVPTYGFKDTNTSSSQKPSEGTYPETTSYSIHNETTSQGRKVSVGSMGSGKSKHHHNHHRHSRQNSSKGSDYDYNNSTHSAEHTPRHHQYGSDEGEQDYHDDEQGEEQAGKQSFMGRVRKSISGGTFGFRSEI
B3: DOT6 (protein, UniProt P40059 1-670)
chain: MSISTSLNSASIHLSSMDTHPQLHSLTRQPHSSSTAMSKNEAQESSPSLPASSSSSTSASASASSKNSSKNPSSWDPQDDLLLRHLKEVKKMGWKDISQYFPNRTPNACQFRWRRLKSGNLKSNKTALIDINTYTGPLKITHGDETANAQQKPSKKVEENVLTEDTAEFTTTSSIPIPSRKTSLPSFHASMSFSQSPSNVTPTTIVSNAASSMPFAPPTLPAALPHHPHQHLHHHPHHKTLKPRSNSHSFTNSLNQDPIVRSNDEEKYGFIPKVFVRSRRSSFAYPQQVAITTTPSSPNSSHVLLSSKSRRGSLANWSRRSSFNVSSNNTSRRSSMILAPNSVSNIFNVNNSGSNTASTSNTNSRRESVIKKEFQQRLNNLSNSGGPTSNNGPIFPNSYTFMDLPHSSSVSSSSTLHKSKRGSFSGHSMKSSCNPTNLWSKDEDALLMENKKRNLSVMELSILLPQRTEVEIQWRLNALSSDADMLSPTHSPQKTLSKKTCPRMFKSGSTTDDDKGSDKEDVMGDGSNDDDEDNVDPLHRAKQSSNKTVFSSSSSNISSKDVSPDPIFSPDPADDSSNTSDAGSRCTITSDTSSSAATMNRTPNSKNPQDIALLNNFRSEAITPRPKPSSTTTSITTETTNNMINHSSSTTTTTNNSPLPSINTIFKDML
B4: DUF1 (protein, UniProt Q99247 1-1116)
chain: MNQLTVSYGLISPDYCTSQDAHILPITKILYPDIPGKNYFLTSGRDGSIILHKNTQLSNEPETAATTIKNDAIRMQVHSDWASDLIHVNMKNSDPSAGDTFISVSHDFSIVLISVNAQLTTWDKKIIGDHDDYIKCIVPIHYEMSNDYELEEQEGGPDNVHDGINNGIVVDEQNNFLFVTGGLDRKIKLWCLSSGPEKMATLLHTFDNAQSNDTGSIYSMSPIIPKYSFDDNQTSRPFDFVAGDCNGDLIFYSCKYRKEVIRIQNAHRTNIKVVRTLDDSTRLISTSSDGVINVWDLNCRHDQTTGALQLPKKIGSWSWDSSIWCVQGTSLDKLYFGDSQGNVMRANLSSYEDAKLTRIFKPDHHHHHHHHHEHEEQNISTTDAKVKKYGGILDIALLPNEKLLFSFCTDSNLNVLDLTNNHFSVNEGGFALTRSSLLTNRRHVITENTKGQMQRWDIVSCELLNTFDSSEGSFDDIVMKYTSKEILSHWCTVSVKVGMLFVKINPKFLKTEVYGSALKDYQVVNNIEINSDERYNLGKIVINSLFNEFISYEVQKDKLLRKKIFSLKKKDLTNSLTLDTGYNSESKKNNKDKKRKSTFKISSTLSIGNTNSSGTPPNSAPATPVMAETIVLEEQPLLQSASDKAIDDSLELVQPLPASKKPYFRTQSSGSLLSRKFKSFRSTSGRATTGLNTPEEPKGILPDTPHVINDDSAFPQAINTTQQSKDATPESMLWNHPFKLEQKLSAISSQDLPSNNTHNKLRSSENSRANSTSTLEGNEKKKPEFMPDLLEQIQESYKQQYMNTSSLKYLTKRLPVTKIIKASSCPIIRVKSATLVLVHLWKEGSCGGRVLFSTLLPPSHVDNETVSGGKENSKPPDDEEVDLQAVDDDKLGKYDLIDGELGSRLNRRQIFEQLEENLPYWFAKALFRDIKTVEEQPKLNFLIMPWSSVGGSEAAGNENKKKFISASDTTESSGNDSSDSSLGNGNEAVSPSTQQQFHNMLKFGRPKTSEQELNPTDLPRISEANVKLVAPGMIRVKKIKLYVADRFETKTPEMKAKMEPSLWLDLLCRGQVLDNDMTLNTVRTLYWKSQGDIVLEYRRKVHNSPLVHEVNGNEGK
B5: GAL83 (protein, UniProt Q04739 1-417)
chain: MAGDNPENKDASMLDVSDAASNTTINGKHSADSTNEASLAYTFSQMNVDNPNELEPQHPLRHKSSLIFNDDDDDEIPPYSNHAENGSGETFDSDDDIDASSSSSIDSNEGDIHDADMTGNTLQKMDYQPSQQPDSLQNQGFQQQQEQQQGTVEGKKGRAMMFPVDITWQQGGNKVYVTGSFTGWRKMIGLVPVPGQPGLMHVKLQLPPGTHRFRFIVDNELRFSDYLPTATDQMGNFVNYMEVSAPPDWGNEPQQHLAEKKANHVDDSKLSKRPMSARSRIALEIEKEPDDMGDGYTRFHDETPAKPNLEYTQDIPAVFTDPNVMEQYYLTLDQQQNNHQNMAWLTPPQLPPHLENVILNSYSNAQTDNTSGALPIPNHVILNHLATSSIKHNTLCVASIVRYKQKYVTQILYTPLQ
B6: GUA1 (protein, UniProt P38625 1-525)
chain: MAAGEQVSNMFDTILVLDFGSQYSHLITRRLREFNIYAEMLPCTQKISELGWTPKGVILSGGPYSVYAEDAPHVDHAIFDLNVPILGICYGMQELAWINGKQVGRGDKREYGPATLKVIDDSNSLFKGMNDSTVWMSHGDKLHGLPTGYKTIATSDNSPYCGIVHETKPIYGIQFHPEVTHSTQGKTLLKNFAVDLCHAKQNWTMENFIDTEINRIRKLVGPTAEVIGAVSGGVDSTVASKLMTEAIGDRFHAILVDNGVLRLNEAANVKKTLVEGLGINLMVVDASEEFLSKLKGVTDPEKKRKIIGNTFIHVFEREAEKIKPKDGKEIQFLLQGTLYPDVIESISFKGPSQTIKTHHNVGGLLENMKLKLIEPLRELFKDEVRHLGELLGIPHDLVWRHPFPGPGIAIRVLGEVTKEQVEIARKADNIYIEEIKKAGLYNQISQAFACLLPVKSVGVMGDQRTYDQVIALRAIETTDFMTADWFPFEHSFLKKVASRIVNEVDGVARVTYDITSKPPATVEWE

Molecular target: T1, His6-Gis1 (yeast (S. cerevisiae))
Experiment: affinity purification with mass spectrometry; His6-Gis1 pre-bound to a Ni Sepharose 6 Fast Flow column; crude yeast extract (Δgis1 cells grown in air or under hypoxia, Δgis1Δhem1 cells at intermediate or high ALA) loaded, 4 °C, 2 h; eluted complexes separated by SDS-PAGE, bands excised, MS; only the target purified

binding, binds:
B1
B2
B3
B4
B5
B6
